This data set has as its target T1, CD30 (TNFRSF8) (UniProt P28908).
T1 sequence (looked up, limits assumed): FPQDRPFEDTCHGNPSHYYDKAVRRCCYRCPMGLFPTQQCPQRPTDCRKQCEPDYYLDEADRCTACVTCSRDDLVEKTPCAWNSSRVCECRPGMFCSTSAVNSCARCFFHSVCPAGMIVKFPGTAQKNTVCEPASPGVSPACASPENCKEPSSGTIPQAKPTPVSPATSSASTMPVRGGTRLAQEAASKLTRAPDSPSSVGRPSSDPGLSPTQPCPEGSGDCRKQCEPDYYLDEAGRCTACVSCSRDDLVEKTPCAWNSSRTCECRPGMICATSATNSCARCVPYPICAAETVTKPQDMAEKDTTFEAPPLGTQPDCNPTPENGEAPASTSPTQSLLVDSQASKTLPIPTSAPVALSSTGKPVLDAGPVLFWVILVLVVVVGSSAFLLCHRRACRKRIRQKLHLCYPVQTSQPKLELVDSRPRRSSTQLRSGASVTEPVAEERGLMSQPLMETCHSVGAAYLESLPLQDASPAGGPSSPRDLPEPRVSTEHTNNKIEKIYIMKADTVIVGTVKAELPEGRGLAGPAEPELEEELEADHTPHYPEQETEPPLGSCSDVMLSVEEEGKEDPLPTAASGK
Put plainly: flow cytometry. The settings on record: Cy5.5 probe stains CD30+ lymphoma cells, not CD30-negative control lymphoma cells (U937); microscopy staining down to 0.3 nM; CD30-negative cells serve as control; protein on the cell surface; protein details: native on Karpas 299 lymphoma cells (ATCC); label: Cy5.5, or Cy3 (5') with BHQ2 (3'), or 5' biotin. Background: In flow cytometry, cells or beads pass a laser one at a time.

At least one result comes from cells or an extract, where the contact may be indirect. Tags and fusion partners may be left off the protein sequences shown.

As for “GAUUCGUAUGGGUGGGAUCGGGAAGGGCUACGAACACCG [CD30 RNA aptamer probe]”, the binding result is “binds”.

Values taken from patent US20150276750.
